Measured values from article doi:10.1101/823096.
These are yes or no findings as the source states them, for the method shown. Binding seen in cells or lysates may run through a third protein. Some results given as binding are weak or reduced against the parent protein; the word gives no strength.

The chains behind the UniProt entries cited, without tags or fusion partners.
UniProt P03081, whole entry: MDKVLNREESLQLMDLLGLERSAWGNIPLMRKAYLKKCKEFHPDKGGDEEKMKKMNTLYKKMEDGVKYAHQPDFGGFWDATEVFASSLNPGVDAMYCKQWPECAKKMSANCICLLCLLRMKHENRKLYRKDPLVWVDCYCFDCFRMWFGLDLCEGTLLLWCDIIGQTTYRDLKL
UniProt P03083, whole entry: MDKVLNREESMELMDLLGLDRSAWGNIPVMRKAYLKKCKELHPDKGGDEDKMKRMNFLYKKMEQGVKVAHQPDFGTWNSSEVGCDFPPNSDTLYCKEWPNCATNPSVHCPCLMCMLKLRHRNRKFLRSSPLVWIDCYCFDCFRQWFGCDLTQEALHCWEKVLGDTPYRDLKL
UniProt P30153, whole entry: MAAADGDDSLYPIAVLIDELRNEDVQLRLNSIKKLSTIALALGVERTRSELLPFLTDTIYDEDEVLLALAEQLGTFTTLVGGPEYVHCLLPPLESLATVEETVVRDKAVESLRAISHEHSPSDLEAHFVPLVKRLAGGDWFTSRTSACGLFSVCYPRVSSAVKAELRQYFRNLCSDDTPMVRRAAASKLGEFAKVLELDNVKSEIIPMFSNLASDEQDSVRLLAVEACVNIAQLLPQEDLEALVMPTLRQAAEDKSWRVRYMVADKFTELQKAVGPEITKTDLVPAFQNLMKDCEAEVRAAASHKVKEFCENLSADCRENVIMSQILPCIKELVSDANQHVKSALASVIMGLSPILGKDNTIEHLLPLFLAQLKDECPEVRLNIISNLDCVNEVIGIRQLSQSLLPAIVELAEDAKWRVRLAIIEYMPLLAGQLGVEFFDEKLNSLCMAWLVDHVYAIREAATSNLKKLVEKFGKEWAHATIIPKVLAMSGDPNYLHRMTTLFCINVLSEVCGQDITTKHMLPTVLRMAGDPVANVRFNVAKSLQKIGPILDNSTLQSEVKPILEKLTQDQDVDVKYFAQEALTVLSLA
UniProt P67775, whole entry: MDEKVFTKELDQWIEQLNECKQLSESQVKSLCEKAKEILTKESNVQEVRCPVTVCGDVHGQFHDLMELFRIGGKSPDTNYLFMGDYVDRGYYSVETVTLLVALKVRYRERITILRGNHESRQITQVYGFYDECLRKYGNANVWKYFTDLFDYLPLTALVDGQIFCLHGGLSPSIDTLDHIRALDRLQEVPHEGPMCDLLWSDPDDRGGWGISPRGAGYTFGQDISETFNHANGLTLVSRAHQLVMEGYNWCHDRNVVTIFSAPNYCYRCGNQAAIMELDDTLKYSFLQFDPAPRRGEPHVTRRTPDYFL
UniProt Q5VSL9, whole entry: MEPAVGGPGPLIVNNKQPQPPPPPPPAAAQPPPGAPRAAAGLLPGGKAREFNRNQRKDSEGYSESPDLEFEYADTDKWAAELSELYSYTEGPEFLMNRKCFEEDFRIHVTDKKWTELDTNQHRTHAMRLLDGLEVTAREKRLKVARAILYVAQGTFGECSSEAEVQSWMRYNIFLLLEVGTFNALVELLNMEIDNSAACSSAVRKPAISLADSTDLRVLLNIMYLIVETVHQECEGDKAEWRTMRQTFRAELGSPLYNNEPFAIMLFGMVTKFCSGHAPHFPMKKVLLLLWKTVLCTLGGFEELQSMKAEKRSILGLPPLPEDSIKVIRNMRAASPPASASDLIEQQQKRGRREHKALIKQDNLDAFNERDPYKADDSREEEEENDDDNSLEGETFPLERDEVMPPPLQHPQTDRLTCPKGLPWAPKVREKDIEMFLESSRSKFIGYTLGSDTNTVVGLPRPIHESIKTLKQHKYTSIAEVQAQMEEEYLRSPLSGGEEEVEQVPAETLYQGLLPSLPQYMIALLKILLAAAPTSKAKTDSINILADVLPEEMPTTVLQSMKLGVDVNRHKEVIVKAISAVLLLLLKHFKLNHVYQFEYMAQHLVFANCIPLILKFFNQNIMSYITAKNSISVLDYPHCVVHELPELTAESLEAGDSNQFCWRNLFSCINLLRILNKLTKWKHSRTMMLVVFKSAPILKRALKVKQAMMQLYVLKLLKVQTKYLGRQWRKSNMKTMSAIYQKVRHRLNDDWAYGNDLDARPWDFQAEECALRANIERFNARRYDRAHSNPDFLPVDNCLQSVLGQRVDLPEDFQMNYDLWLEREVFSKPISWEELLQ
UniProt O95819, whole entry: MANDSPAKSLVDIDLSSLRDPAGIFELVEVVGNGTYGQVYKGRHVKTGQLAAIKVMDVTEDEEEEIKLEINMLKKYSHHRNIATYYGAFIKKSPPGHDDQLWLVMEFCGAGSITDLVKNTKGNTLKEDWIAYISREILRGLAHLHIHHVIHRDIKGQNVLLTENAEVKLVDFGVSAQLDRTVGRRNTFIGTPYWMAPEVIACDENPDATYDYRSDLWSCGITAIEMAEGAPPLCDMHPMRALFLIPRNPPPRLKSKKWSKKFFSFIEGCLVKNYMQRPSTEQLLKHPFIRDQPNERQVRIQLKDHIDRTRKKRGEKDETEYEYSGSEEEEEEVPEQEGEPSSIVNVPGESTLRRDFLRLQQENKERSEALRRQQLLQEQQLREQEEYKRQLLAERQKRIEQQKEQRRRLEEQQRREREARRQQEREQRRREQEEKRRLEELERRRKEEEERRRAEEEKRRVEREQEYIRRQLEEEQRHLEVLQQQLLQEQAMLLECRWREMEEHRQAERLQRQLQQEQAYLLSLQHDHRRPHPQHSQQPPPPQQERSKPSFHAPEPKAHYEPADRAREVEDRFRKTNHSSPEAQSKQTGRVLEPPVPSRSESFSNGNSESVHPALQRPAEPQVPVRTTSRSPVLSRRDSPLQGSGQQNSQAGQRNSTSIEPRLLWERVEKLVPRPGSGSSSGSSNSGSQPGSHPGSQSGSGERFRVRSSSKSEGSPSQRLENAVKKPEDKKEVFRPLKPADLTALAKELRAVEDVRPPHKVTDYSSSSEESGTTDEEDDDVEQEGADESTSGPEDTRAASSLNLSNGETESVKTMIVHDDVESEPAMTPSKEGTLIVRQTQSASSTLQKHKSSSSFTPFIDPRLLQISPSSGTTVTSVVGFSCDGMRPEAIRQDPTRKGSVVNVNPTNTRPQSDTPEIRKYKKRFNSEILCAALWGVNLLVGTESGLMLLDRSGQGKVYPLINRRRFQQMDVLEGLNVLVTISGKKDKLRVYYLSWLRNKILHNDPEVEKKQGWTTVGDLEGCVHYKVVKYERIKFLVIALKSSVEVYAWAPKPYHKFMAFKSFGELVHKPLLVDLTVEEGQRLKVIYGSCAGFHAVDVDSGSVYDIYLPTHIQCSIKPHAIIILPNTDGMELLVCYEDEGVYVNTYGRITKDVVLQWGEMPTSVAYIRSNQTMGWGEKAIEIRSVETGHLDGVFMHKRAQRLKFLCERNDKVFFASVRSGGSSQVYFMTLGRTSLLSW

How the values were obtained:
[1] = target: SV40 Small T antigen, C-terminal Flag-HA tagged (CTAP-SV40 ST) (SV40) (UniProt P03081); assay: co-IP
[2] = target: JCPyV-Mad1 Small T antigen, C-terminal Flag-HA tagged (JCPyV, strain Mad1) (UniProt P03083); assay: co-IP

With “PP2A Aα subunit (PPP2R1A), endogenous (from UniProt P30153 1-589)” the binding [1] was “binds”.

In the case of “PP2A Cα subunit, endogenous (from UniProt P67775 1-309) (enzyme)”, the binding [1] is reported as “binds” and the binding [2] is reported as “binds”.

With “STRIP1, endogenous (from UniProt Q5VSL9 1-837)” the binding [1] was “binds” and the binding [2] was “binds”.

With “mitogen-activated protein kinase kinase kinase kinase 4 (MAP4K4), endogenous (from UniProt O95819 1-1239) (enzyme)” the binding [1] was “binds” and the binding [2] was “no binding”.

B1: STRN3, endogenous (protein, UniProt Q13033 1-797)
chain: MDELAGGGGGGPGMAAPPRQQQGPGGNLGLSPGGNGAAGGGGPPASEGAGPAAGPELSRPQQYTIPGILHYIQHEWARFEMERAHWEVERAELQARIAFLQGERKGQENLKKDLVRRIKMLEYALKQERAKYHKLKYGTELNQGDLKMPTFESEETKDTEAPTAPQNSQLTWKQGRQLLRQYLQEVGYTDTILDVRSQRVRSLLGLSNSEPNGSVETKNLEQILNGGESPKQKGQEIKRSSGDVLETFNFLENADDSDEDEENDMIEGIPEGKDKHRMNKHKIGNEGLAADLTDDPDTEEALKEFDFLVTAEDGEGAGEARSSGDGTEWDKDDLSPTAEVWDVDQGLISKLKEQYKKERKGKKGVKRANRTKLYDMIADLGDDELPHIPSGIINQSRSASTRMTDHEGARAEEAEPITFPSGGGKSFIMGSDDVLLSVLGLGDLADLTVTNDADYSYDLPANKDAFRKTWNPKYTLRSHFDGVRALAFHPVEPVLVTASEDHTLKLWNLQKTVPAKKSASLDVEPIYTFRAHIGPVLSLAISSNGEQCFSGGIDATIQWWNMPSPSVDPYDTYEPNVLAGTLVGHTDAVWGLAYSGIKNQLLSCSADGTVRLWNPQEKLPCICTYNGDKKHGIPTSVDFIGCDPAHMVTSFNTGSAVIYDLETSQSLVILSSQVDSGLQSNNHINRVVSHPTLPVTITAHEDRHIKFFDNKTGKMIHSMVAHLDAVTSLAVDPNGIYLMSGSHDCSIRLWNLDSKTCVQEITAHRKKLDESIYDVAFHSSKAYIASAGADALAKVFV
B1 was tested, and the binding [2] was “binds”.
